## Drug screen on melanoma cell lines: apoptosis marker

From a melanoma drug combination screen (doi:10.1371/journal.pone.0140310); values rounded.

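Human melanoma cells were exposed to two drugs together for 72 h in 1,536-well plates and read by automated microscopy after fixing and staining. Each value is the cleaved-PARP-positive fraction of nuclei relative to DMSO-treated wells, in %, so that 100 equals the control and higher values mean more apoptosis. Every drug was used at one fixed concentration, the higher of two screened. No replicate spread is given; individual values may be noisy. The marker varies much from line to line, for technical or biological reasons.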 Only some of the drugs and lines screened are listed, without regard to their results.

All values are for the listed drug together with lapatinib (4 µM): CS(=O)(=O)CCNCc1ccc(-c2ccc3ncnc(Nc4ccc(OCc5cccc(F)c5)c(Cl)c4)c3c2)o1

Second drug | COLO 792 | SK-MEL-5 | UACC-257 | MZ2-MEL | WM451Lu | LB2518-MEL
CCCS(=O)(=O)Nc1ccc(F)c(C(=O)c2c[nH]c3ncc(Cl)cc23)c1F at 0.4 µM | 265 | 285 | 63.7 | 164 | 121 | 80.1
Cn1cc(C2=C(c3cn(C4CCN(Cc5ccccn5)CC4)c4ccccc34)C(=O)NC2=O)c2ccccc21 at 4 µM | 155 | 600 | 45.4 | 27.6 | 122 | 148
Oc1cc(-c2nc(-c3ccccc3)[nH]c2-c2ccncc2)ccc1Cl at 1 µM | 80.6 | 210 | 80.0 | 66.1 | 1090 | 60.0
Cn1cc(/C=C2\C(=O)Nc3cccnc32)c2ccccc21 at 2 µM | 77.2 | 167 | 39.6 | 94.8 | 54.9 | 200
CNC(=O)c1cc(Oc2ccc(NC(=O)Nc3ccc(Cl)c(C(F)(F)F)c3)cc2)ccn1 at 2 µM | 38.7 | 454 | 69.8 | 150 | 85.8 | 89.2
CC(C)C[C@H](NC(=O)[C@H](Cc1ccccc1)NC(=O)c1cnccn1)B(O)O at 0.005 µM | 1470 | 2010 | 41.6 | 13100 | 328 | 4500
C[C@@H](Oc1cc(-c2cnn(C3CCNCC3)c2)cnc1N)c1c(Cl)ccc(F)c1Cl at 1 µM | 167 | 508 | 175 | 325 | 103 | 139
C[C@]1(O)C[C@@H](c2nc(-c3ccc4ccc(-c5ccccc5)nc4c3)c3c(N)nccn32)C1 at 2 µM | 188 | 207 | 118 | 431 | 150 | 54.8
O=C(O)C(=O)Nc1sc2c(c1C(=O)O)CCNC2 at 8.33 µM | 93.1 | 133 | 32.4 | 109 | 51.5 | 70.8
Cc1ccc(Nc2nccc(N(C)c3ccc4c(C)n(C)nc4c3)n2)cc1S(N)(=O)=O at 2 µM | 101 | 440 | 62.8 | 194 | 105 | 298
Cn1c(=O)n(-c2ccc(C(C)(C)C#N)cc2)c2c3cc(-c4cnc5ccccc5c4)ccc3ncc21 at 0.02 µM | 184 | 341 | 69.7 | 143 | 54.1 | 84.6
COC(=O)c1sccc1S(=O)(=O)Nc1ccc(Nc2ccccc2)cc1OC at 5 µM | 116 | 110 | 69.2 | 175 | 152 | 147
CCc1ccc(CCOc2ccc(CC3SC(=O)NC3=O)cc2)nc1 (stereo not given) at 10 µM | 89.0 | 425 | 29.2 | 71.5 | 336 | 175
C[As](C)SC[C@H](NC(=O)CC[C@H](N)C(=O)O)C(=O)NCC(=O)O at 2 µM | 98.5 | 293 | 48.9 | 116 | 111 | 74.2
COc1ccc(C2=N[C@@H](c3ccc(Cl)cc3)[C@@H](c3ccc(Cl)cc3)N2C(=O)N2CCNC(=O)C2)c(OC(C)C)c1 at 0.5 µM | 95.3 | 217 | 40.0 | 89.3 | 67.3 | 53.3
CCCCCCCCCCCCCCCCCCOP(=O)([O-])OC1CC[N+](C)(C)CC1 at 2 µM | 132 | 77.8 | 32.2 | 58.4 | 87.1 | 102
NC(=O)Nc1cc(-c2cccc(F)c2)sc1C(=O)N[C@H]1CCCNC1 at 0.1 µM | 424 | 378 | 96.3 | 61.7 | 79.4 | 278
NC(=O)c1ccc(N(C(N)=O)c2c(F)cccc2F)nc1-c1ccc(F)cc1F at 2 µM | 433 | 306 | 72.8 | 104 | 73.8 | 140
CN(c1ncccc1CNc1nc(Nc2ccc3c(c2)CC(=O)N3)ncc1C(F)(F)F)S(C)(=O)=O at 0.4 µM | 184 | 534 | 384 | 60.8 | 93.5 | 69.6
CS(=O)(=O)c1ccc(C(=O)Nc2ccc(Cl)c(-c3ccccn3)c2)c(Cl)c1 at 5 µM | 241 | 197 | 23.0 | 70.2 | 120 | 125
COc1cc2c(Oc3ccc4[nH]c(C)cc4c3F)ncnc2cc1OCCCN1CCCC1 at 2 µM | 373 | 88.0 | 59.9 | 216 | 345 | 127
O=C(Nc1cccc(Cl)c1)Nc1ncc(CCNc2ncnc3ccsc23)s1 at 0.004 µM | 276 | 97.3 | 102 | 244 | 101 | 64.8
Cc1cc([N+](=O)[O-])ccc1NS(=O)(=O)c1cc(Cl)ccc1Cl at 5 µM | 211 | 231 | 538 | 302 | 123 | 147

2 of the entries, repeated:

| Second drug | COLO 792 | SK-MEL-5 | UACC-257 | MZ2-MEL | WM451Lu | LB2518-MEL |
|---|---|---|---|---|---|---|
| CS(=O)(=O)c1ccc(C(=O)Nc2ccc(Cl)c(-c3ccccn3)c2)c(Cl)c1 at 5 µM | 241 | 197 | 23.0 | 70.2 | 120 | 125 |
| CCCCCCCCCCCCCCCCCCOP(=O)([O-])OC1CC[N+](C)(C)CC1 at 2 µM | 132 | 77.8 | 32.2 | 58.4 | 87.1 | 102 |